Measured values published in patent US7030162B2, “Treatment of migraine headache” (POZEN Inc., priority 1996, dated 2006).

Test: clinical
Settings: both, human, in vivo

- Tmax: 1.2 h
SMILES: COc1ccc2cc([C@H](C)C(=O)O)ccc2c1 [naproxen sodium]
